The source gives many values for each of these; only a part stands here.
How the values were obtained:
Assay type in all cases: cell-based
Settings in all cases: U-87MG ATCC
[1] = Inhibition of RTK/PI3K/AKT/mTOR signaling in human U87 cells assessed as up regulation of nicalin gene expression at cytotoxic IC50 measured after 48 hrs relative to control
[2] = Inhibition of RTK/PI3K/AKT/mTOR signaling in human U87 cells assessed as up regulation of jagunal homolog 1 gene expression at cytotoxic IC50 measured after 48 hrs relative to control
[3] = Inhibition of RTK/PI3K/AKT/mTOR signaling in human U87 cells assessed as up regulation of CD47 molecule gene expression at cytotoxic IC50 measured after 48 hrs relative to control
[4] = Inhibition of RTK/PI3K/AKT/mTOR signaling in human U87 cells assessed as up regulation of brain derived neurotrophic factor gene expression at cytotoxic IC50 measured after 48 hrs relative to control
[5] = Inhibition of RTK/PI3K/AKT/mTOR signaling in human U87 cells assessed as down regulation of GCC1 gene expression at cytotoxic IC50 measured after 48 hrs relative to control
[6] = Inhibition of RTK/PI3K/AKT/mTOR signaling in human U87 cells assessed as up regulation of laminin subunit beta 2 gene expression at cytotoxic IC50 measured after 48 hrs relative to control
[7] = Inhibition of RTK/PI3K/AKT/mTOR signaling in human U87 cells assessed as down regulation of AGFG1 gene expression at cytotoxic IC50 measured after 48 hrs relative to control
[8] = Inhibition of RTK/PI3K/AKT/mTOR signaling in human U87 cells assessed as down regulation of EFL1 gene expression at cytotoxic IC50 measured after 48 hrs relative to control
[9] = Inhibition of RTK/PI3K/AKT/mTOR signaling in human U87 cells assessed as down regulation of NEDD4L gene expression at cytotoxic IC50 measured after 48 hrs relative to control
[10] = Inhibition of RTK/PI3K/AKT/mTOR signaling in human U87 cells assessed as up regulation of gap junction protein gamma 1 gene expression at cytotoxic IC50 measured after 48 hrs relative to control
[11] = Inhibition of RTK/PI3K/AKT/mTOR signaling in human U87 cells assessed as up regulation of acid sensing ion channel subunit 1 gene expression at cytotoxic IC50 measured after 48 hrs relative to control
[12] = Inhibition of RTK/PI3K/AKT/mTOR signaling in human U87 cells assessed as down regulation of TOR3A gene expression at cytotoxic IC50 measured after 48 hrs relative to control
[13] = Inhibition of RTK/PI3K/AKT/mTOR signaling in human U87 cells assessed as up regulation of homeobox D8 gene expression at cytotoxic IC50 measured after 48 hrs relative to control
[14] = Inhibition of RTK/PI3K/AKT/mTOR signaling in human U87 cells assessed as down regulation of BTBD11 gene expression at cytotoxic IC50 measured after 48 hrs relative to control
[15] = Inhibition of RTK/PI3K/AKT/mTOR signaling in human U87 cells assessed as up regulation of glyceraldehyde-3-phosphate dehydrogenase gene expression at cytotoxic IC50 measured after 48 hrs relative to control
[16] = Inhibition of RTK/PI3K/AKT/mTOR signaling in human U87 cells assessed as up regulation of HKDC1 gene expression at cytotoxic IC50 measured after 48 hrs relative to control
[17] = Inhibition of RTK/PI3K/AKT/mTOR signaling in human U87 cells assessed as up regulation of SDC3 gene expression at cytotoxic IC50 measured after 48 hrs relative to control
[18] = Inhibition of RTK/PI3K/AKT/mTOR signaling in human U87 cells assessed as down regulation of PSMC2 gene expression at cytotoxic IC50 measured after 48 hrs relative to control
[19] = Inhibition of RTK/PI3K/AKT/mTOR signaling in human U87 cells assessed as down regulation of GUK1 gene expression at cytotoxic IC50 measured after 48 hrs relative to control
[20] = Inhibition of RTK/PI3K/AKT/mTOR signaling in human U87 cells assessed as up regulation of SMPDL3B gene expression at cytotoxic IC50 measured after 48 hrs relative to control
[21] = Inhibition of RTK/PI3K/AKT/mTOR signaling in human U87 cells assessed as down regulation of RFPL4A gene expression at cytotoxic IC50 measured after 48 hrs relative to control
[22] = Inhibition of RTK/PI3K/AKT/mTOR signaling in human U87 cells assessed as down regulation of ZMYM5 gene expression at cytotoxic IC50 measured after 48 hrs relative to control
[23] = Inhibition of RTK/PI3K/AKT/mTOR signaling in human U87 cells assessed as up regulation of TRIM65 gene expression at cytotoxic IC50 measured after 48 hrs relative to control
[24] = Inhibition of RTK/PI3K/AKT/mTOR signaling in human U87 cells assessed as up regulation of potassium voltage-gated channel subfamily J member 12 gene expression at cytotoxic IC50 measured after 48 hrs relative to control
[25] = Inhibition of RTK/PI3K/AKT/mTOR signaling in human U87 cells assessed as up regulation of methyltransferase like 26 gene expression at cytotoxic IC50 measured after 48 hrs relative to control
[26] = Inhibition of RTK/PI3K/AKT/mTOR signaling in human U87 cells assessed as up regulation of phosphoribosyl-aminoimidazole carboxylase and phosphoribosyl-aminoimidazole-succinocarboxamide synthase gene expression at cytotoxic IC50 measured after 48 hrs relative to control
[27] = Inhibition of RTK/PI3K/AKT/mTOR signaling in human U87 cells assessed as up regulation of KRT80 gene expression at cytotoxic IC50 measured after 48 hrs relative to control
[28] = Inhibition of RTK/PI3K/AKT/mTOR signaling in human U87 cells assessed as up regulation of LIM and calponin homology domains 1 gene expression at cytotoxic IC50 measured after 48 hrs relative to control
[29] = Inhibition of RTK/PI3K/AKT/mTOR signaling in human U87 cells assessed as down regulation of RGS2 gene expression at cytotoxic IC50 measured after 48 hrs relative to control
[30] = Inhibition of RTK/PI3K/AKT/mTOR signaling in human U87 cells assessed as up regulation of nectin cell adhesion molecule 2 gene expression at cytotoxic IC50 measured after 48 hrs relative to control
[31] = Inhibition of RTK/PI3K/AKT/mTOR signaling in human U87 cells assessed as down regulation of SEC61B gene expression at cytotoxic IC50 measured after 48 hrs relative to control
[32] = Inhibition of RTK/PI3K/AKT/mTOR signaling in human U87 cells assessed as down regulation of MDFI gene expression at cytotoxic IC50 measured after 48 hrs relative to control

Molecule `CC(=O)C(=NNc1ccccc1C#N)C(C)=O` has a log2FC [1] of 0.773, a log2FC [2] of 0.679 and a log2FC [3] of 0.789. The log2FC [4] was 1.09, the log2FC [5] was -0.701 and the log2FC [6] was 0.828. The log2FC [7] was -0.617, the log2FC [8] was -1.58 and the log2FC [9] was -0.692. It also gave a log2FC [10] of 0.985, a log2FC [11] of 1.35 and a log2FC [12] of -0.808. For the same molecule, the log2FC [13] was 1.2, the log2FC [14] was -2.66 and the log2FC [15] was 1.14. It also gave a log2FC [16] of 2.15, a log2FC [17] of 0.59 and a log2FC [18] of -1.03. The log2FC [19] was -1.01, the log2FC [20] was 1.93 and the log2FC [21] was -6.44. It also gave a log2FC [22] of -0.867, a log2FC [23] of 2.15 and a log2FC [24] of 1.34. It also gave a log2FC [25] of 0.989, a log2FC [26] of 0.925 and a log2FC [27] of 3.39. For the same molecule, the log2FC [28] was 1.56, the log2FC [29] was -2.33 and the log2FC [30] was 0.974. The log2FC [31] was -0.495 and the log2FC [32] was -1.08.

From ChEMBL document CHEMBL4316593 (Eur J Med Chem, 2019)
